For part of these data: At least one compound was matched to its structure with a doubt left. Some of these results come from one statement about several compounds together.
Columns and labels:
Assay type in all cases: cell-based, human
T47D cells = assay: 3H-thymidine cell proliferation assay
E-cadherin = assay: Surface E-cadherin staining by flow cytometry; conditions: A549 and H460 cells; GA 50 nm
A549 cells = assay: Motility assay; conditions: 36-h assay, GA 50 nM
H460 cells = assay: Motility assay; conditions: 36-h assay, GA 50 nM
MCF-7 cells = assay: 3H-thymidine cell proliferation assay; conditions: single agents: Tamoxifen 1 μg/mL, Ad-mda7 1000 vp/cell

COc1cccc2c1C(=O)c1c(O)c3c(c(O)c1C2=O)C[C@@](O)(C(=O)CO)C[C@@H]3O[C@H]1C[C@H](N)[C@H](O)[C@H](C)O1 [Adriamycin, doxorubicin]
reduction in cell growth (T47D cells; single agents: 200 vp/cell Ad-mda7 or 1 ng/ml Adriamycin): 17-23%

COC1=C2C[C@@H](C)C[C@H](OC)[C@H](O)[C@@H](C)/C=C(\C)[C@H](OC(N)=O)[C@@H](OC)/C=C\C=C(/C)C(=O)NC(=CC1=O)C2=O [GA, Geldanamycin]
surface E-cadherin level (E-cadherin): increase in E-cadherin levels | cell motility (A549 cells): reduced motility | cell motility (H460 cells): reduced motility

CC/C(=C(\c1ccccc1)c1ccc(OCCN(C)C)cc1)c1ccccc1 [Tamoxifen]
response (reduction of cell proliferation) (MCF-7 cells): < 15% | reduction of cell proliferation (T47D cells; single agents: Ad-empty 0-1000 vp/cell, Tamoxifen up to 2 μg/ml, 3 days): less than 20%
